Data taken from PubChem BioAssay AID2685 (National Center for Advancing Translational Sciences (NCATS), 2010).
Screen size: about 320,000 compounds; about 2,100 (0.66%) were called active. The inconclusive results got no clear call from the source; some entries with a clear call stand among them for comparison. Calls follow the shape of the dose curve; as a rule, active = well fitted inhibition curve with a large enough effect in the signal ratio, with a control signal flat (not every such curve was filed as active); inconclusive = small, poorly fitted or top-dose-only effect, or effect the other way, or a change in a side signal; inactive = flat fitted curve, though single readings scatter; the % refers to the signal ratio. Potencies of inconclusive entries are doubtful fits and often do not repeat.

Assay: qHTS Assay for Lipid Storage Modulators in Drosophila S3 Cells
Conditions: BODIPY lipid droplet fluorescence, 18-24 h, cells fed with added oleic acid; lipid storage change, negative = inhibition: at 46.1 µM (top of the series) unless noted
Procedure, shortened: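 Drosophila S3 cells loaded with oleic acid (400 uM, as added) and compounds at several concentrations; lipid droplets imaged by 488-nm laser-scanning cytometry, 500–530 nm intensity and object ratio to cell channel. Percent activity normalized to 20 uM Triacsin C.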
% is scaled to controls: 0 for no effect and ±100 for the full control effect; potency is read from the fitted curve at half-maximal effect.

| SMILES | lipid storage change, negative = inhibition | Potency |
| --- | --- | --- |
| COCCNC(=O)/C(C#N)=C/c1ccc(O)cc1 | inconclusive: -14.2% | – |
| COc1ccc(NC(=S)NCCCN2CCOCC2)cc1 | – | inconclusive: 29.1 µM [cytotoxic, single point] |
| COCCn1c(=O)[nH]c2cc(C(=O)Nc3cccc(F)c3)ccc2c1=O | inconclusive: 2.53% | – |
| O=C(NC1CCS(=O)(=O)C1)c1cccc(Br)c1 (configuration not stated) | inactive: -8.87% | – |
| NC(=O)C1CCCN(C(=O)c2cccc(NC(=O)c3cccs3)c2)C1 (configuration not stated) | inconclusive | – |
| COCCNC(=O)C12CC3CC(C1)CC(c1ccccc1)(C3)C2 | inconclusive: -37.2% [cytotoxic] [at 0.369 µM] | – |
| CCNC(=O)N1CCC(n2nccc2NC(=O)CCCc2ccccc2)CC1 | – | inconclusive: 10.3 µM [activator, partial curve] |
| CC(C)c1nc(C(N)=O)c2[nH]c(=O)n(-c3ccc(F)cc3)c2n1 | inconclusive: 42.8% | – |
| COc1ccc(C(=O)Nc2ccc(NC(=O)c3ccccn3)cn2)cc1 | inconclusive: -67.8% | – |
| Nc1ccc(-c2nc3c(Cl)c(N)ccc3[nH]2)cc1 | inconclusive: 53.8% | – |
| O=C(NCc1nc(-c2ccc(Cl)cc2)no1)c1ccc2c(c1)OCO2 | inconclusive: 127% | – |
| CSc1ccc(/C=N/NC(=O)c2ccc(-n3cnnn3)cc2)cc1 | inconclusive: -9.69% | – |
| NS(=O)(=O)c1ccc(CCNC(=S)Nc2ccc(F)cc2)cc1 | inconclusive: 73.1% | – |
| O=C(CN(Cc1ccc(F)cc1)C(=O)CCC(=O)Nc1nccs1)NCc1ccccc1 | inconclusive: 142% | – |
| CC(CCc1ccccc1)NC(=O)Cc1ccc(Br)cc1 (configuration not stated) | inconclusive: -17.4% | – |
| COc1cc(OC)c(S(=O)(=O)N2CCCCC2)cc1S(=O)(=O)N1CCCCC1 | inconclusive: -59.1% | – |
| CCOC(=O)c1ccc(NC(=O)c2ccccc2[N+](=O)[O-])cc1 | – | inconclusive: 6.51 µM [activator, single point] |
| COc1cccc(OC)c1C(=O)N1CCN(c2c(Cc3ccccc3)c(C)nc3ncnn23)CC1 | – | inconclusive: 29.1 µM [activator, single point] |
| CNCC(=O)N(CC(C)C)c1c(N)n(CC(C)C)c(=O)[nH]c1=O | inconclusive: -51.9% | – |
| Cc1ccc(S(=O)(=O)N(C)c2c(C)ccc(S(=O)(=O)N3CCN(C)CC3)c2C)cc1 | inconclusive: -8.07% | – |
| CCOCC(=O)OCC(=O)NC12CC3CC(CC(C3)C1)C2 | – | inconclusive: 0.0058 µM [falling, full curve, poor fit] |
| NS(=O)(=O)c1ccc(-c2ccc(/C=N/NC(=O)c3ccccc3O)o2)cc1 | inconclusive: 0.182% | – |

Record cards, as listed above. Order of values: lipid storage change, negative = inhibition	Potency
`NS(=O)(=O)c1ccc(-c2ccc(/C=N/NC(=O)c3ccccc3O)o2)cc1` reads inconclusive: 0.182%	–
`COc1cccc(OC)c1C(=O)N1CCN(c2c(Cc3ccccc3)c(C)nc3ncnn23)CC1` reads –	inconclusive: 29.1 µM [activator, single point]
